From paper PMC8806792
No constants are given. Whether binding was seen depends on the method and setting. Binding seen in cells or lysates may run through a third protein. Some results given as binding are weak or reduced against the parent protein; the word gives no strength.

Amino acid sequences for entries named in this document (tags omitted).
UniProt P40763: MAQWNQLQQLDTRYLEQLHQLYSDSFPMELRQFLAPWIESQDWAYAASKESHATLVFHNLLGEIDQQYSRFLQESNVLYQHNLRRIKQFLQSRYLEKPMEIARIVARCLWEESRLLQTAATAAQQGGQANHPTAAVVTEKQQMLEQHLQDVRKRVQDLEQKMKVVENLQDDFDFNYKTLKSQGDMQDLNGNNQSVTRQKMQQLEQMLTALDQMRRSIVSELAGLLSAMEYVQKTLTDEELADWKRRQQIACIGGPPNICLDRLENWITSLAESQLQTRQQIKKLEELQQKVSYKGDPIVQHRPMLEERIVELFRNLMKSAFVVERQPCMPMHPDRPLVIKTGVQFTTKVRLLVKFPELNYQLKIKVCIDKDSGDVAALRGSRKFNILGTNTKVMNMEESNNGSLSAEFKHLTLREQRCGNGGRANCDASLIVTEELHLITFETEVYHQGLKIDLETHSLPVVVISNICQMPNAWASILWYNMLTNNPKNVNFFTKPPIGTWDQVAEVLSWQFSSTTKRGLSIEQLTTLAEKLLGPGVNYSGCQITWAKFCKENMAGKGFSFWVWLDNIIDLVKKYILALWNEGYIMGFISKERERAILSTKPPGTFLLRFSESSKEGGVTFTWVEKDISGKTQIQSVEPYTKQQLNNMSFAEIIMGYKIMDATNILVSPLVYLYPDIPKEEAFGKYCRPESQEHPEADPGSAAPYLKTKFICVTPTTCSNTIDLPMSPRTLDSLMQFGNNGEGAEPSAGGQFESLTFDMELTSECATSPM

Target: T1, T-cell protein tyrosine phosphatase (TCPTP) (human (endogenous in HCC cells, Hep3B or HCCLM3)) (UniProt P17706)
T1 sequence: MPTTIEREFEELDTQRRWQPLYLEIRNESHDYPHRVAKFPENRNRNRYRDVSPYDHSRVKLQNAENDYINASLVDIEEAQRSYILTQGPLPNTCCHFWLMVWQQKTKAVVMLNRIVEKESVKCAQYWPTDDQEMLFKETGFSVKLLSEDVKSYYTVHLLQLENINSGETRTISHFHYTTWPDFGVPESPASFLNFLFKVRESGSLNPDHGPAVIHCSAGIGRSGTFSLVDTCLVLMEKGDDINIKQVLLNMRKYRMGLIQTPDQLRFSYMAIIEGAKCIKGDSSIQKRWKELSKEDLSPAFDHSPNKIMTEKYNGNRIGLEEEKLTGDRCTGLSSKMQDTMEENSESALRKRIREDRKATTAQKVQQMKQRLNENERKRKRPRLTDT
Test: co-IP; endogenous TCPTP and STAT3 in HCC cells silenced by siRNA (TINCR-silenced as the set-up says); which protein was precipitated is not told

binding: binds
Substance: signal transducer and activator of transcription 3 (STAT3) (from UniProt P40763 1-770)
